One compound from ChEMBL document CHEMBL2169886 (J Med Chem, 2012) can be followed below.

This data set can be described thus: physchem. To be noted: buffer, pH 7.4.

For `N[C@@H]1CCN(c2cnc3nnn(Cc4ccc5ncccc5c4)c3n2)C1`, the logD (as a rule, the decadic logarithm of the distribution of all forms, ionised or not, between an organic phase and buffer at a given pH) turned out to be 0.86.
